Assay results: patent US20200123266A1 (Memorial Sloan Kettering, published 2020)
No constants are given. Whether binding was seen depends on the method and setting. Some binding calls cover weakened binding; strength is not graded here.

Chains of the proteins cited; added tags and fusions are not shown. Lines headed by an entry give the natural chain unless they say otherwise; changes in a name come on top.
UniProt Q02223: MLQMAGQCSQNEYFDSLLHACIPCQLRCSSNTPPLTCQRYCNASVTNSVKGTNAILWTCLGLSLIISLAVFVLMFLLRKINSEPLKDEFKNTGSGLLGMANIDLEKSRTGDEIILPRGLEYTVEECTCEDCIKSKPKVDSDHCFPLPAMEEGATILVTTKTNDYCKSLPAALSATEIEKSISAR

Legend:
[1] = target: human BCMA on 3T3-BCMA cell line (human) (UniProt Q02223); assay: FACS on 3T3-BCMA cells, phage, anti-M13 mouse antibody, APC anti-mouse IgG
[2] = target: human BCMA on 3T3-BCMA cell line (human) (UniProt Q02223); assay: flow cytometry, scFv phage on 3T3-BCMA cells, anti-M13 detection
[3] = target: biotinylated BCMA-Fc protein (human) (UniProt Q02223); assay: phage ELISA on coated human BCMA ECD-Fc, HRP anti-M13, TMB

Measured: binding

B1: ET140-3 scFv phage antibody clone (scFv)
scFv: LPVLTQPPSASGTPGQRVTISCSGRSSNIGSNSVNWYRQLPGAAPKLLIYSNNQRPPGVPVRFSGSKSGTSASLAISGLQSEDEATYYCATWDDNLNVHYVFGTGTKVTVLGSRGGGGSGGGGSGGGGSLEMAQVQLVQSGAEVKKPGSSVKVSCKASGGTFSSYAISWVRQAPGQGLEWMGRIIPILGIANYAQKFQGRVTITADKSTSTAYMELSSLRSEDTAVYYCARGGYYSHDMWSEDWGQGTLVTVSS
binds: all assays above

B2: ET140-40 scFv phage antibody clone (scFv)
scFv: QSVLTQPPSVSGAPGQRVTISCTGSSSNIGAGFDVHWYQQLPGTAPKLLIYGNSNRPSGVPDRFSGSKSGTSASLAITGLQAEDEADYYCQSYDSSLSGYVFGTGTKVTVLGSRGGGGSGGGGSGGGGSLEMAQVQLVQSGAEVKKPGASVKVSCKASGYTFTDYYMHWVRQAPGQRLEWMGWINPNSGGTNYAQKFQDRITVTRDTSSNTGYMELTRLRSDDTAVYYCARSPYSGVLDKWGQGTLVTVSS
binds: all assays above

B3: ET140-54 scFv phage antibody clone (scFv)
scFv: QSALTQPASVSASPGQSIAISCTGTSSDVGWYQQHPGKAPKLMIYEDSKRPSGVSNRFSGSKSGNTASLTISGLQAEDEADYYCSSNTRSSTLVFGGGTKLTVLGSRGGGGSGGGGSGGGGSLEMAEVQLVQSGAEMKKPGASLKLSCKASGYTFIDYYVYWMRQAPGQGLESMGWINPNSGGTNYAQKFQGRVTMTRDTSISTAYMELSRLRSDDTAMYYCARSQRDGYMDYWGQGTLVTVSS
binds: all assays above
